Consider six compounds from PubChem BioAssay AID188 (DTP/NCI, 2004).

Values are animals surviving of animals treated; these mice carried no tumour. Counts of survivors are from the toxicity check (mostly the fifth day) where no day follows; animals may have died later. Schedules are NCI's codes, taken here to give the interval after Q, in days (D) or hours (H), and the number of doses after X. Some entries hold several experiments; the results are listed from low to high.

This assay concerns CD2F1 mice, nontumored, toxicity/survival. The assay can be described thus: NCI In Vivo Anticancer Drug Screen. Data for tumor model Nontumored Animals (Toxicity Test) in CD2F1 (CDF1) mice.

On to `CCNc1ncc2ccccc2c1-c1ccc(N2CCN(CCCl)CC2)cc1`, for which the survivor count reads like this: (dose: 1.0 mg/kg/injection, schedule: Q01DX001 (ip), vehicle: saline + alcohol) 2 of 2; (dose: 10.0 mg/kg/injection, schedule: Q01DX001 (ip), vehicle: saline + alcohol) 2 of 2; (dose: 100.0 mg/kg/injection, schedule: Q01DX001 (ip), vehicle: saline + alcohol) 2 of 2.

With `CCCCCC[C@H]([C@H](C)O)n1cnc2c(N)ncnc21`, the survivor count was 10 of 10 (dose: 25.0 mg/kg/injection, schedule: Q01DX009 (ip), vehicle: Klucel (hydroxypropylcellulose) (HPC)); 10 of 10 (dose: 50.0 mg/kg/injection, schedule: Q01DX009 (ip), vehicle: Klucel (hydroxypropylcellulose) (HPC)); 10 of 10 (dose: 50.0 mg/kg/injection, schedule: Q04DX002 (ip), vehicle: Klucel (hydroxypropylcellulose) (HPC)); 8 of 9 (dose: 100.0 mg/kg/injection, schedule: Q01DX009 (ip), vehicle: Klucel (hydroxypropylcellulose) (HPC)); 10 of 10 (dose: 100.0 mg/kg/injection, schedule: Q04DX002 (ip), vehicle: Klucel (hydroxypropylcellulose) (HPC)); 4 of 7 (dose: 200.0 mg/kg/injection, schedule: Q01DX009 (ip), vehicle: Klucel (hydroxypropylcellulose) (HPC)). The survivor count (dose: 200.0 mg/kg/injection, schedule: Q04DX002 (ip), vehicle: Klucel (hydroxypropylcellulose) (HPC)) was 10 of 10.

For `O=[N+]([O-])c1nccn1CC(O)CF` (centres undefined), the survivor count reads like this: (dose: 25.0 mg/kg/injection, schedule: Q01DX005 (ip), vehicle: other) 3 of 3; (dose: 50.0 mg/kg/injection, schedule: Q01DX001 (ip), vehicle: saline with Tween-80) 3 of 3; (dose: 50.0 mg/kg/injection, schedule: Q01DX005 (ip), vehicle: other) 3 of 3; (dose: 100.0 mg/kg/injection, schedule: Q01DX001 (ip), vehicle: saline with Tween-80) 3 of 3; (dose: 100.0 mg/kg/injection, schedule: Q01DX005 (ip), vehicle: other) 3 of 3; (dose: 200.0 mg/kg/injection, schedule: Q01DX001 (ip), vehicle: saline with Tween-80) 3 of 3. The survivor count runs as follows: (dose: 200.0 mg/kg/injection, schedule: Q01DX005 (ip), vehicle: other) 3 of 3; (dose: 360.0 mg/kg/injection, schedule: Q01DX001 (ip), vehicle: saline with Tween-80) 3 of 3; (dose: 400.0 mg/kg/injection, schedule: Q01DX001 (ip), vehicle: saline with Tween-80) 3 of 3; (dose: 400.0 mg/kg/injection, schedule: Q01DX005 (ip), vehicle: other) 2 of 3; (dose: 600.0 mg/kg/injection, schedule: Q01DX001 (ip), vehicle: saline with Tween-80) 3 of 3; (dose: 600.0 mg/kg/injection, schedule: Q01DX005 (ip), vehicle: other) 1 of 3. Also, the survivor count (dose: 800.0 mg/kg/injection, schedule: Q01DX005 (ip), vehicle: other) is reported as 0 of 3 and the survivor count (dose: 1000.0 mg/kg/injection, schedule: Q01DX001 (ip), vehicle: saline with Tween-80) is recorded as 0 of 3.

As for `O=NN(Cc1cnc2[nH]c(=O)[nH]c(=O)c2n1)c1ccc(C(=O)NC(CCC(=O)O)C(=O)O)cc1` (centres undefined), the survivor count is, setting by setting: (dose: 1.0 mg/kg/injection, schedule: Q01DX001 (ip), vehicle: water) 2 of 2; (dose: 10.0 mg/kg/injection, schedule: Q01DX001 (ip), vehicle: water) 2 of 2; (dose: 100.0 mg/kg/injection, schedule: Q01DX001 (ip), vehicle: water) 2 of 2.

Turning to `Oc1ccc2c3c1OC1C(O)C=CC4C(C2)NCCC341` (centres undefined), the survivor count by setting is: (dose: 1.0 mg/kg/injection, schedule: Q01DX001 (ip), vehicle: other) 2 of 2; (dose: 10.0 mg/kg/injection, schedule: Q01DX001 (ip), vehicle: other) 2 of 2; (dose: 100.0 mg/kg/injection, schedule: Q01DX001 (ip), vehicle: other) 2 of 2.

On to `CO[C@H](C(=O)[C@@H](O)[C@@H](C)O)[C@@H]1Cc2cc3cc(OC4CC(OC5CC(O)C(O)C(C)O5)C(O)C(C)O4)c(C)c(O)c3c(O)c2C(=O)[C@H]1OC1CC(OC2CC(OC3CC(C)(O)C(O)C(C)O3)C(O)C(C)O2)C(O)C(C)O1` (some centres undefined), for which the survivor count is reported as 8 of 8 (dose: 0.01 mg/kg/injection, schedule: Q01DX009 (ip), vehicle: saline); 8 of 8 (dose: 0.02 mg/kg/injection, schedule: Q01DX009 (sc), vehicle: saline); 8 of 8 (dose: 0.03 mg/kg/injection, schedule: Q01DX001 (ip), vehicle: saline); 8 of 8 (dose: 0.03 mg/kg/injection, schedule: Q01DX001 (sc), vehicle: saline); 8 of 8 (dose: 0.03 mg/kg/injection, schedule: Q01DX005 (iv), vehicle: saline); 8 of 8 (dose: 0.03 mg/kg/injection, schedule: Q01DX009 (ip), vehicle: saline). Moreover, the survivor count is, setting by setting: (dose: 0.03 mg/kg/injection, schedule: Q01DX009 (sc), vehicle: saline) 8 of 8; (dose: 0.06 mg/kg/injection, schedule: Q01DX001 (ip), vehicle: saline) 8 of 8; (dose: 0.06 mg/kg/injection, schedule: Q01DX001 (sc), vehicle: saline) 8 of 8; (dose: 0.06 mg/kg/injection, schedule: Q01DX005 (iv), vehicle: saline) 8 of 8; (dose: 0.06 mg/kg/injection, schedule: Q01DX009 (ip), vehicle: saline) 8 of 8; (dose: 0.06 mg/kg/injection, schedule: Q01DX009 (sc), vehicle: saline) 8 of 8. Also, the survivor count by setting is: (dose: 0.13 mg/kg/injection, schedule: Q01DX001 (ip), vehicle: saline) 8 of 8; (dose: 0.13 mg/kg/injection, schedule: Q01DX001 (sc), vehicle: saline) 8 of 8; (dose: 0.13 mg/kg/injection, schedule: Q01DX005 (iv), vehicle: saline) 8 of 8; (dose: 0.13 mg/kg/injection, schedule: Q01DX009 (ip), vehicle: saline) 8 of 8; (dose: 0.13 mg/kg/injection, schedule: Q01DX009 (sc), vehicle: saline) 8 of 8; (dose: 0.25 mg/kg/injection, schedule: Q01DX001 (ip), vehicle: saline) 8 of 8. Moreover, the survivor count (dose: 0.25 mg/kg/injection, schedule: Q01DX001 (sc), vehicle: saline) was 8 of 8; the survivor count (dose: 0.25 mg/kg/injection, schedule: Q01DX005 (iv), vehicle: saline) is on record as 8 of 8; the survivor count (dose: 0.25 mg/kg/injection, schedule: Q01DX009 (ip), vehicle: saline) is recorded as 8 of 8; the survivor count (dose: 0.25 mg/kg/injection, schedule: Q01DX009 (oral), vehicle: saline) was 8 of 8; the survivor count (dose: 0.25 mg/kg/injection, schedule: Q01DX009 (sc), vehicle: saline) is 7 of 8 and 8 of 8; the survivor count (dose: 0.5 mg/kg/injection, schedule: Q01DX001 (ip), vehicle: saline) is recorded as 8 of 8. In addition, the survivor count (dose: 0.5 mg/kg/injection, schedule: Q01DX001 (oral), vehicle: saline) is recorded as 8 of 8; the survivor count (dose: 0.5 mg/kg/injection, schedule: Q01DX001 (sc), vehicle: saline) was 2 of 8 and 8 of 8; the survivor count (dose: 0.5 mg/kg/injection, schedule: Q01DX005 (iv), vehicle: saline) is listed as 7 of 8; the survivor count (dose: 0.5 mg/kg/injection, schedule: Q01DX009 (oral), vehicle: saline) was 8 of 8; the survivor count (dose: 0.5 mg/kg/injection, schedule: Q01DX009 (sc), vehicle: saline) is 1 of 8 and 8 of 8; the survivor count (dose: 1.0 mg/kg/injection, schedule: Q01DX001 (oral), vehicle: saline) is reported as 8 of 8. In addition, the survivor count (dose: 1.0 mg/kg/injection, schedule: Q01DX001 (sc), vehicle: saline) was 0 of 8 and 8 of 8; the survivor count (dose: 1.0 mg/kg/injection, schedule: Q01DX009 (oral), vehicle: saline) is reported as 8 of 8; the survivor count (dose: 1.0 mg/kg/injection, schedule: Q01DX009 (sc), vehicle: saline) is listed as 0 of 6; the survivor count (dose: 2.0 mg/kg/injection, schedule: Q01DX001 (oral), vehicle: saline) is reported as 8 of 8; the survivor count (dose: 2.0 mg/kg/injection, schedule: Q01DX001 (sc), vehicle: saline) is recorded as 0 of 8; the survivor count (dose: 2.0 mg/kg/injection, schedule: Q01DX009 (oral), vehicle: saline) was 6 of 8. Moreover, the survivor count by setting is: (dose: 2.0 mg/kg/injection, schedule: Q01DX009 (sc), vehicle: saline) 1 of 8; (dose: 4.0 mg/kg/injection, schedule: Q01DX001 (oral), vehicle: saline) 8 of 8; (dose: 4.0 mg/kg/injection, schedule: Q01DX001 (sc), vehicle: saline) 0 of 8.
